Data reported in the supplement of paper PMC4683952.
Where a name gives a salt, the structure may show the parent alone. This is one part of the list. Cut-off read from the data, not from the text of the source: active = 2.5 or more and inactive = the rest. Repeats in this data set agree poorly, so a single value says little.

tested on: Lgr5 (MarsCy1-Lgr5-EGFP, U2OS); test: cell-surface Lgr5 expression (SCi1 fluorescence, background-subtracted) relative to WT control (fold of WT control); higher = more Lgr5 at the plasma membrane; details: U2OS MarsCy1-Lgr5-EGFP stable; treatment time: overnight; library: Prestwick; 20 µM

| SMILES | cell-surface Lgr5 expression |
| --- | --- |
| Cn1c(=O)c2c(ncn2CC(O)CO)n(C)c1=O (stereo not given) [Diprophylline] | inactive: 1.49 |
| CC[C@]12CCCN3CCc4c(n(c5ccccc45)[C@@](O)(C(=O)OC)C1)[C@@H]32 [Vincamine] | inactive: 0.955 |
| CC(CCc1ccc(O)cc1)NCCc1ccc(O)c(O)c1 (stereo not given) [Dobutamine hydrochloride] | active: 3.06 |
| Nc1ccc(S(N)(=O)=O)cc1 [Sulfanilamide] | inactive: 1.91 |
| CCSc1ccc2c(c1)N(CCCN1CCN(C)CC1)c1ccccc1S2 [Thiethylperazine malate] | inactive: 1.1 |
| CN(C)CCC(c1ccccc1)c1ccccn1 (stereo not given) [Pheniramine maleate] | inactive: 1.45 |
| CCN1CCCC1CNC(=O)c1cc(S(N)(=O)=O)ccc1OC (racemic) [Sulpiride] | inactive: 1.51 |
| O=C(O)c1cc(=O)c2c(OCC(O)COc3cccc4oc(C(=O)O)cc(=O)c34)cccc2o1 [Cromolyn disodium salt] | inactive: 2.47 |
| CCCCOc1ccc(CC(=O)NO)cc1 [Bufexamac] | inactive: 1.08 |
| CC(=O)OC(C)C[N+](C)(C)C (stereo not given) [Methacholine chloride] | inactive: 1.79 |
| C=CCc1ccccc1OCC(O)CNC(C)C (stereo not given) [Alprenolol hydrochloride] | inactive: 1.37 |
| NC[C@H]1CC[C@H](C(=O)O)CC1 [Tranexamic acid] | inactive: 1.11 |
| C=CC[N@@+]12CC[C@@]34c5ccccc5N5/C=C6/[C@H]7C[C@H]8[C@@]9(CC[N@@+]8(CC=C)C/C7=C/CO)c7ccccc7N(/C=C(/[C@@H](C[C@@H]31)/C(=C\CO)C2)[C@H]54)[C@@H]69 [Alcuronium chloride] | inactive: 1.73 |
| CCCC(C(=O)OCCN(CC)CC)(c1ccccc1)c1ccccc1 [Proadifen hydrochloride] | inactive: 1.77 |
| C[C@H](CCC(=O)NCC(=O)O)[C@H]1CC[C@H]2[C@@H]3[C@H](O)C[C@@H]4C[C@H](O)CC[C@]4(C)[C@H]3C[C@H](O)[C@]12C [Glycocholic acid] | inactive: 1.85 |
| Clc1ccc(COC(Cn2ccnc2)c2ccc(Cl)cc2Cl)cc1 (stereo not given) [Econazole nitrate] | inactive: 1.7 |
| Clc1ccccc1C(c1ccccc1)(c1ccccc1)n1ccnc1 [Clotrimazole] | inactive: 1.25 |
| Cc1c(C)c2c(c(C)c1O)CC[C@@](C)(CCC[C@H](C)CCC[C@H](C)CCCC(C)C)O2 (racemic) [Tocopherol (R,S)] | inactive: 0.889 |
| CCN(CCCc1ccccc1)CCCc1ccccc1 [Alverine citrate salt] | inactive: 0.71 |
| CCN(CC)C(=O)N1CCN(C)CC1 [Diethylcarbamazine citrate] | inactive: 1.8 |
| O=C(O)Cc1cc(I)c(Oc2ccc(O)c(I)c2)c(I)c1 [Tiratricol, 3,3',5-triiodothyroacetic acid] | active: 2.78 |
| O=C(CCCCC(=O)Nc1c(I)cc(I)c(C(=O)O)c1I)Nc1c(I)cc(I)c(C(=O)O)c1I [Iodipamide] | inactive: 1.54 |
| CCCCOC(=O)c1ccc(O)cc1 [Butylparaben] | inactive: 1.97 |

Reformatted: entries from further up.
SMILES	cell-surface Lgr5 expression
C=CC[N@@+]12CC[C@@]34c5ccccc5N5/C=C6/[C@H]7C[C@H]8[C@@]9(CC[N@@+]8(CC=C)C/C7=C/CO)c7ccccc7N(/C=C(/[C@@H](C[C@@H]31)/C(=C\CO)C2)[C@H]54)[C@@H]69 [Alcuronium chloride]	inactive: 1.73
CCN(CC)C(=O)N1CCN(C)CC1 [Diethylcarbamazine citrate]	inactive: 1.8

Further structures.

| SMILES | cell-surface Lgr5 expression |
| --- | --- |
| CC1=CC(=O)c2ccccc2C1=O [Menadione] | inactive: 1.85 |
| CC(=O)/N=c1/sc(S(N)(=O)=O)nn1C [Methazolamide] | inactive: 1.74 |
| N=C(N)N1CCc2ccccc2C1 [Debrisoquin sulfate] | inactive: 1.6 |
| CCCC(=O)Nc1ccc(OCC(O)CNC(C)C)c(C(C)=O)c1 (stereo not given) [Acebutolol hydrochloride] | inactive: 1.91 |
| CC(=O)Nc1ccc(OCC(O)CNC(C)C)cc1 (stereo not given) [Practolol] | inactive: 1.63 |
| O=C(Nc1ccccc1)OCC(CN1CCCCC1)OC(=O)Nc1ccccc1 (stereo not given) [Diperodon hydrochloride] | inactive: 1.03 |
| C[C@@H]1O[C@@H](O[C@H]2[C@H](Oc3cc(O)c4c(c3)O[C@H](c3ccc(O)cc3)CC4=O)O[C@H](CO)[C@@H](O)[C@@H]2O)[C@H](O)[C@H](O)[C@H]1O [Naringin hydrate] | inactive: 0.926 |
| N=C(N=C(N)N)N1CCOCC1 [Moroxidine hydrochloride] | inactive: 1.18 |
| Nc1nc(=O)[nH]cc1F [Flucytosine] | inactive: 1.56 |
| Cc1cccc(C)c1NC(=O)CN1CCN(CCCC(c2ccc(F)cc2)c2ccc(F)cc2)CC1 [Lidoflazine] | inactive: 0.71 |
| CC(=O)O[C@]1(C(C)=O)CC[C@H]2[C@@H]3C=C(C)C4=CC(=O)CC[C@]4(C)[C@H]3CC[C@@]21C [Megestrol acetate] | active: 3.04 |
| O=C1C(O)=C(O)C(=O)C(O)=C1O [Tetrahydroxy-1,4-quinone monohydrate] | inactive: 0.272 |
| Cc1nccn1CC1CCc2c(c3ccccc3n2C)C1=O (stereo not given) [Ondansetron Hydrochloride] | inactive: 1.23 |
| NC(=O)c1cc[n+](CC2=C(C(=O)[O-])N3C(=O)[C@@H](NC(=O)Cc4cccs4)[C@H]3SC2)cc1 [Cefalonium] | inactive: 0.71 |
| COc1ccc2c(c1)c(CC(=O)OCC(=O)O)c(C)n2C(=O)c1ccc(Cl)cc1 [Acemetacin] | inactive: 1.3 |
| COc1ccc2cc3[n+](cc2c1OC)CCc1cc2c(cc1-3)OCO2 [Berberine chloride] | inactive: 1.87 |
| CC(C)(C)NCC(O)COc1cccc2c1CC(O)C(O)C2 (stereo not given) [Nadolol] | inactive: 2.32 |
| CC1=C(C(=O)O)N2C(=O)[C@@H](NC(=O)[C@H](N)c3ccccc3)[C@H]2SC1 [Cephalexin monohydrate] | inactive: 1.98 |
| COc1cc2ccc(=O)oc2cc1O [Scopoletin] | inactive: 1.28 |
| COc1cc(NS(=O)(=O)c2ccc(N)cc2)nc(OC)n1 [Sulfadimethoxine] | inactive: 1.05 |
| C=N[C@@H](C(=O)N[C@@H]1C(=O)N2[C@@H]1SC(C)(C)[C@@H]2C(=O)O)c1ccccc1 [Metampicillin sodium salt] | inactive: 1.2 |
| CC[N+](CC)(CC(=O)Nc1c(C)cccc1C)Cc1ccccc1 [Denatonium benzoate] | inactive: 0.911 |
